Experimental data published in US6991814B2, “Herbal medicaments for the treatment of neurocerebrovascular disorders” (Council of Scientific and Industrial Research, priority 2001, dated 2006).
For at least one compound, name, drawing or mass did not settle the structure.

System: abdominal aorta rings contracted with norepinephrine
Experiment: Relaxation of norepinephrine-contracted aortic rings
Conditions: aortic rings contracted with norepinephrine 10^-8 to 10^-5 M; Curcuma oil final 0.861 mg in 8 ml bath; acetylcholine 10^-7 to 10^-5 M; FIG. 8

SMILES: CC(=O)OCC[N+](C)(C)C [acetylcholine]
- relaxation of norepinephrine induced contraction: complete relaxation
